Source: US12390473B2, “Methods of treating tyrosine kinase inhibitor-induced diarrhea” (THE REGENTS OF THE UNIVERSITY OF CALIFORNIA, priority 2019, dated 2025)

System: cAMP-activated K+ channels
Assay: Inhibition of forskolin-induced short-circuit current in T84 cells (FIG. 11B)
Format: cell-based, human
Conditions: 10 μM forskolin

Structure (SMILES): Clc1ccccc1C(c1ccccc1)(c1ccccc1)n1ccnc1 [clotrimazole]
- IC50 for inhibition of cAMP-dependent basolateral K+ conductance: low micromolar
